Patent US10358434B2, “2-(3-pyridinyl)-1H-benzimidazole derivative compound and medicament containing same” (NIHON MEDI-PHYSICS CO., LTD., priority 2014, dated 2019)
Some of these results come from one statement about several compounds together.

Molecular target: T1, human CYP11B2 (Homo sapiens, UniProt P19099)
T1 construct: expressed in transfected cells; host or cells: V79 cells (Chinese hamster lung-derived fibroblasts, from ECACC through DS Pharma Biomedical)
T1 sequence (P19099 25-503): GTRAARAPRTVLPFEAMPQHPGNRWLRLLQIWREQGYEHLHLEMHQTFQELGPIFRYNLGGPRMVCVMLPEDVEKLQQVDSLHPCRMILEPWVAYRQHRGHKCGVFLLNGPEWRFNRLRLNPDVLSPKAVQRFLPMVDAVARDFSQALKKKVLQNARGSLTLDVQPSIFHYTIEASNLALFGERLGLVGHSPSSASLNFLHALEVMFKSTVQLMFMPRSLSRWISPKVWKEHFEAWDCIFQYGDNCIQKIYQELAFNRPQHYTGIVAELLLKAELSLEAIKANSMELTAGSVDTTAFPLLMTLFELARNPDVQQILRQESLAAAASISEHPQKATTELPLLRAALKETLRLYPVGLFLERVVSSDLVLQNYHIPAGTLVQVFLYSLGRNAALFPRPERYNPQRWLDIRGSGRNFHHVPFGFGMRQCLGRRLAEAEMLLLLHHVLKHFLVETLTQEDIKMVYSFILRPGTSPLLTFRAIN
Experiment: Aldosterone production inhibition in V79-B2 cells expressing human CYP11B2 (ELISA)
Assay type: cell-based
Details: from Tables 5 and 6
Method: This inhibition experiment can be carried out by the following operations. Human CYP11B1 and human CYP11B2 are allowed to individually express in Chinese hamster lung-derived fibroblasts. Subsequently, 11-deoxycortisol is added to the cells expressing human CYP11B1 to a final concentration of 100 nmol/L, and corticosterone is added to the cells expressing human CYP11B2 to a final concentration of 100 nmol/L. At the same time, a target compound used as an analytical sample is added to each of the cells to a final concentration of 10^−4 to 10^4 nmol/L. Thereafter, the concentration of cortisol as a metabolite of CYP11B1 is measured in the cells expressing human CYP11B1 according to ELISA (Enzyme-Linked ImmunoSorbent Assay), and the concentration of aldosterone as a metabolite of CYP11B2 is measured in the cells expressing human CYP11B2 according to ELISA. […]
Chinese hamster lung-derived fibroblasts, V79 cells (acquired from ECACC (European Collection of Cell Cultures) through DS Pharma Biomedical), were allowed to express human CYP11B2, so as to produce V79-B2, and were also allowed to express human CYP11B1, so as to produce V79-B1. […] One hour later, the culture supernatant of V79-B1 was recovered, and the concentration of cortisol as a metabolite of CYP11B1 was measured by ELISA (Enzyme-Linked ImmunoSorbent Assay). […]

Substance: Methyl 1-[4-(1-cyclopropyl-6-iodo-1H-imidazobenzo-2-yl)-3-pyridinylmethyl)]-1H-imidazolecarboxylate [Compound 601]
- specificity to CYP11B2 in comparison to IMTO: higher specificity to CYP11B2, in comparison to IMTO
